Results are given in words; binding and its absence hold for the method and conditions named. Binding seen in cells or lysates may run through a third protein. Some results given as binding are weak or reduced against the parent protein; the word gives no strength.
Tests used:
[1] = molecular target: endogenous galectin-1 (human (endogenous in H441)) (UniProt P09382); assay: proximity ligation; H441 cells on coverslips, fixed with 4% paraformaldehyde; primary antibodies against FAK1 and galectin-1, 2 h at room temperature; no primary antibody as negative control
V5-galectin-1 = V5-galectin-1 (UniProt P09382); assay: co-IP; HEK-293T cells transfected with V5-galectin-1, GFP-FAK1 or both; IP with V5 antibody, immunoblot with GFP antibody

Amino acid sequences for entries named in this document (tags omitted).
UniProt P09382: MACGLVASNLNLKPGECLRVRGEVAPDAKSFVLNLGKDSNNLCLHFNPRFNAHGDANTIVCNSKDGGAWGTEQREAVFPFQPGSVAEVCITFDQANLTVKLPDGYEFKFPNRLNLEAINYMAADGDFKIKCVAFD
UniProt Q05397: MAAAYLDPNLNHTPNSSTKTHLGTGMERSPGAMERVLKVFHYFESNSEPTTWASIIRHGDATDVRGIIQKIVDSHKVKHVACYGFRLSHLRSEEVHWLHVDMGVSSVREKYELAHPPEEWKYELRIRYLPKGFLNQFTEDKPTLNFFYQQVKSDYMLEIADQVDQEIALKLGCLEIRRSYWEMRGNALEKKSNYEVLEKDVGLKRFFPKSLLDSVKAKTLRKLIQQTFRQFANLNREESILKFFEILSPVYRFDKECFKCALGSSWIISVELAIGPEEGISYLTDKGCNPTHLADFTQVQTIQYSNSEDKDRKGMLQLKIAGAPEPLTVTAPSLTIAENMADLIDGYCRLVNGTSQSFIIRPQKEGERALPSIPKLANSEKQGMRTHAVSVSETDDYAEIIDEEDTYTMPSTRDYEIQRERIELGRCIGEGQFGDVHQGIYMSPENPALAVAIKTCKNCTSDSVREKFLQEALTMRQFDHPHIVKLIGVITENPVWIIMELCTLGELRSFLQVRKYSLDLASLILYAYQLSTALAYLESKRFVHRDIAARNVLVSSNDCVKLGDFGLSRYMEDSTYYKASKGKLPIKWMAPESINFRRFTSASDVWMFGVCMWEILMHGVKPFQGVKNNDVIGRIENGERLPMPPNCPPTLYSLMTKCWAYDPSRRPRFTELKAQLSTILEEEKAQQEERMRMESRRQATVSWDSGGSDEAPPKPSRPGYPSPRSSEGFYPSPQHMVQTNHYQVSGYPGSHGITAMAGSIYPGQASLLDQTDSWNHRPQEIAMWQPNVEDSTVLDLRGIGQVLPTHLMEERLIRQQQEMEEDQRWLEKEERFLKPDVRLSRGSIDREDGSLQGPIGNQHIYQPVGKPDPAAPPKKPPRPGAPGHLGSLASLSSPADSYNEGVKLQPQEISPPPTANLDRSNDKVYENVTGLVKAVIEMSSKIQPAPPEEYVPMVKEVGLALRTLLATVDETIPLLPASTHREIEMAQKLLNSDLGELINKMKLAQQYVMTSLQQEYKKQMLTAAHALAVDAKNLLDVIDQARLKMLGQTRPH

binding [1] | binding (V5-galectin-1) | Substance
binds |  | endogenous FAK1 (from UniProt Q05397 1-1052)
 | binds | GFP-FAK1 (from UniProt Q05397 1-1052)

From paper PMC5385413
